Assay results: paper PMC13557503
These are yes or no findings as the source states them, for the method shown. Binding can be weak; no strength is given.

Amino acid sequences for entries named in this document (tags omitted). A change or cut given only in a name is not applied to a line headed by its entry.
UniProt F7VVC1: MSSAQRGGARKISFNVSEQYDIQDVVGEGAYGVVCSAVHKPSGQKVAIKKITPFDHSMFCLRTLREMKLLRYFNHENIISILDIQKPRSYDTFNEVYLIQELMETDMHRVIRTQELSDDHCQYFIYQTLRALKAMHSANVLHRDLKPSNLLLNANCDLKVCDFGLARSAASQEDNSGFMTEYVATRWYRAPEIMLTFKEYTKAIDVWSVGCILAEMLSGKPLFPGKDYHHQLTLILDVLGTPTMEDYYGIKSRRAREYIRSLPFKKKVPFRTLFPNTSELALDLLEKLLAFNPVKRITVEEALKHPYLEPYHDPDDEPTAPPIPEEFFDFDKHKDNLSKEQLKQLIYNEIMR

Target: BD-MAK2 (S. macrospora) (UniProt F7VVC1)
Experiment: two-hybrid; Matchmaker Gold; Gal4 BD baits (pGBKT7) in Y2HGold mated with Gal4 AD preys (pGADT7) in Y187; drop dilutions on SD-Leu-Trp-His-Ade, 30 °C, 5 days

With AD-SmDOC1 (from UniProt F7W7B4) the binding was “binds”.
